Measurements reported in PubChem BioAssay AID1224826 (NIAID, 2016)

- Screen: 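Knock-downs that raise or lower Tnf reporter signal after endotoxin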 (primary screen)
- System: RAW264.7 G9 macrophages from mouse bearing reporters for p65 (GFP) and the Tnf promoter (mCherry)
- Knock-down reagent: siRNA pool against mouse genes, 100 nM
- Duration: 16 h of LPS stimulation, after 2 days of siRNA transfection
- Challenge: bacterial lipopolysaccharide (Salmonella minnesota R595), 10 ng/ml
- Measurement: 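Imaged Tnf reporter mCherry in nuclei, minus background, normalised per plate to the median and expressed as robust z-scores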
- Reading the numbers: Tnf reporter robust z-score: higher = stronger Tnf promoter reporter signal after LPS
- Active means: 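Called active when robust z-score is at most -1.3, matching the median of the Tlr4 knock-down control, or over 3; control wells and wells with under 50 cells never active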
- Calls: active = Tnf reporter clearly lowered or raised; inactive = no clear change in Tnf reporter
In all, the deposit lists about 17,000 reagents; shown is an unselected part. About 1,110 of all reagents (6.6%) were called active. 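Active means lowered or raised reporter signal; replicate intensities are raw and not normalised per plate.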 Unmarked entries are inactive. Not all columns of the deposit are shown. No sequences are given here.

gene,Tnf reporter robust z-score,fewer than 50 cells in well
Catsperb (cation channel sperm associated auxiliary subunit beta),2.53,enough cells in well
Rpp40 (ribonuclease P 40 subunit),-1.27,enough cells in well
"Atp12a (ATPase, H+/K+ transporting, nongastric, alpha polypeptide)",-0.44,enough cells in well
"Aff3 (AF4/FMR2 family, member 3)",-0.16,enough cells in well
"Sem1 (SEM1, 26S proteasome complex subunit)",1.31,enough cells in well
A430010J10Rik (RIKEN cDNA A430010J10 gene),-0.35,enough cells in well
Sfxn1 (sideroflexin 1),2.78,enough cells in well
Spice1 (spindle and centriole associated protein 1),0.01,enough cells in well
Ldhd (lactate dehydrogenase D),-1.77 (active),enough cells in well
"Rbms3 (RNA binding motif, single stranded interacting protein)",,fewer than 50 cells per well; well left out of calls
Birc2 (baculoviral IAP repeat-containing 2),2.76,enough cells in well
Cd200r3 (CD200 receptor 3),0.44,enough cells in well
Efcab5 (EF-hand calcium binding domain 5),-0.07,enough cells in well
"Thsd4 (thrombospondin, type I, domain containing 4)",-0.55,enough cells in well
"Fam219b (family with sequence similarity 219, member B)",,fewer than 50 cells per well; well left out of calls
Nacc2,-0.17,enough cells in well
"Acap1 (ArfGAP with coiled-coil, ankyrin repeat and PH domains 1)",0.37,enough cells in well
Vmn1r47 (vomeronasal 1 receptor 47),,fewer than 50 cells per well; well left out of calls
Spi1 (Spi-1 proto-oncogene),-1.55 (active),enough cells in well
Timmdc1,,fewer than 50 cells per well; well left out of calls
Or56b35 (olfactory receptor family 56 subfamily B member 35),-0.24,enough cells in well
"T (brachyury, T-box transcription factor T)",-0.7,enough cells in well
Zfp128 (zinc finger protein 128),-0.51,enough cells in well
Tmt1b (thiol methyltransferase 1B),0.42,enough cells in well
Tyw3 (tRNA-yW synthesizing protein 3 homolog (S. cerevisiae)),-0.33,enough cells in well
Gpr151 (G protein-coupled receptor 151),0.04,enough cells in well
Cd96 (CD96 antigen),-0.62,enough cells in well
Smyd3 (SET and MYND domain containing 3),-0.23,enough cells in well
"Pigz (phosphatidylinositol glycan anchor biosynthesis, class Z)",0.12,enough cells in well
"Serpine2 (serine (or cysteine) peptidase inhibitor, clade E, member 2)",-0.39,enough cells in well
Spop (speckle-type BTB/POZ protein),1.51,enough cells in well
S100a4 (S100 calcium binding protein A4),0.07,enough cells in well
Ugp2 (UDP-glucose pyrophosphorylase 2),1.28,enough cells in well
2810021J22Rik (RIKEN cDNA 2810021J22 gene),1.27,enough cells in well
Il9r (interleukin 9 receptor),0.92,enough cells in well
Anapc4 (anaphase promoting complex subunit 4),-0.68,enough cells in well
"Pou4f1 (POU domain, class 4, transcription factor 1)",-0.59,enough cells in well
Slc29a3,,fewer than 50 cells per well; well left out of calls
Lypd9 (LY6/PLAUR domain containing 9),-0.69,enough cells in well
Nol3 (nucleolar protein 3 (apoptosis repressor with CARD domain)),-1.22,enough cells in well
Dazap1 (DAZ associated protein 1),-1.82 (active),enough cells in well
"Gla (galactosidase, alpha)",-0.2,enough cells in well
Lenep (lens epithelial protein),2.13,enough cells in well
Ndufb8 (NADH:ubiquinone oxidoreductase subunit B8),-0.12,enough cells in well
Atg101 (autophagy related 101),,fewer than 50 cells per well; well left out of calls
Vmn1r172 (vomeronasal 1 receptor 172),-0.62,enough cells in well
Tsr3 (TSR3 20S rRNA accumulation),-0.2,enough cells in well
E130006D01Rik (RIKEN cDNA E130006D01 gene),4.31 (active),enough cells in well
"Atp6v1b1 (ATPase, H+ transporting, lysosomal V1 subunit B1)",1.15,enough cells in well
Mphosph6 (M phase phosphoprotein 6),-0.95,enough cells in well
"Abca7 (ATP-binding cassette, sub-family A member 7)",0.26,enough cells in well
Ca4 (carbonic anhydrase 4),1.39,enough cells in well
Ddit4l (DNA-damage-inducible transcript 4-like),1.58,enough cells in well
Fbxo17 (F-box protein 17),-0.37,enough cells in well
Duoxa2 (dual oxidase maturation factor 2),-0.99,enough cells in well
"Crygd (crystallin, gamma D)",0.38,enough cells in well
Zfp454 (zinc finger protein 454),2.08,enough cells in well
Rpl7 (ribosomal protein L7),,fewer than 50 cells per well; well left out of calls
